## Results of single-concentration screens

Measurements from “University of Dundee, Small-Polar-MMV Screening Library” (2021), ChEMBL document CHEMBL3988442.

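Whole-cell growth test on Mycobacterium tuberculosis, read after 3 days in glucose-containing 7H9 medium; the read-out is not stated. Compounds at 500 µM. Direction is inferred from retests: higher values go with more growth inhibition. About 18,000 compounds were tested under these conditions; 7.9% (about 1,400) showed 50% or more at least once.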

Each number is a percent effect as filed.
The record does not define 0% and 100%; most values in the screen are far below 50% and negative numbers occur (in some assays of this library far below -100).
The compounds are a random part of those screened.

| Compound | percent effect |
|---|---|
| `NCCc1cnc2ccccc2c1` | 22.93 |
| `CS(=O)(=O)NCC1CCCN(c2ncc(Cl)cc2F)C1` (stereo not shown) | 75.38 |
| `O=C(Cn1ccc(C(F)(F)F)n1)Nc1ccccn1` | 54.62 |
| `CNC(=O)CN1CCC(NC(=O)c2cccs2)CC1` | 36.31 |
| `Cc1csc(CCNC(=O)CSCC#N)n1` | 15.62 |
| `CC1CCN(Cc2cc(=O)n(C)c(=O)n2C)CC1` | 2.681 |
| `O=C(NCC1CCNCC1)c1ccncc1` | -5.745 |
| `COC(=O)CCCC(=O)N1CCCc2ccccc2C1` | 54.97 |
| `NS(=O)(=O)Cc1cccnc1` | -8.6 |
| `O=C(NCCNc1ncccn1)c1ccc(O)c(Cl)c1` | 33.97 |
| `CCNC(=O)C1CN(C(=O)Nc2ccc(F)cc2)C1` | -1.614 |
| `CCNC(=O)CN1CCN(c2cc(C)nc(C)n2)CC1` | 10.22 |
| `Cc1cn(CCNC(=O)CN2CCCCCC2=O)nn1` | -10.58 |
| `O=C(NC1CCCCC1)NC1CCNCC1` | -2.886 |
| `COCCc1noc(C2CNC2)n1` | 99.82 |
| `O=C(c1cnc[nH]1)N1CCCN(C2CCCC2)CC1` | 9.723 |
| `CC(C)N(CC(N)=O)C(=O)COc1ccc(F)cc1Br` | 33.05 |
| `CC(c1cc(F)ccc1F)N(C)C(=O)CCCN` (stereo not shown) | -0.6615 |
| `CN(C)S(=O)(=O)N(C)CCc1ccccn1` | 2.286 |
| `COc1ccc(OCCSCC(=O)NCCC#N)cc1` | 68.26 |
| `CC(=O)NCCCOC(=O)c1csc(C)n1` | 5.235 |
| `COCc1noc(CC(C)NC(=O)C2CCCC2)n1` (stereo not shown) | 6.128 |
| `CN(CCCOc1ccccc1)C(=O)C1CNC(=O)N1` (stereo not shown) | -1.652 |
| `CN1CCC(C(=O)NCc2ccc(C#N)cc2)CC1=O` (stereo not shown) | 8.95 |
| `Cc1cccc2ncn(C)c(=O)c12` | -1.646 |
| `COc1ccc(CCC(=O)NC(C)C(=O)N(C)C)cc1` (stereo not shown) | 1.791 |
| `CN(C)C(CNC(=O)Nc1cccnc1)c1ccco1` (stereo not shown) | 11.06 |
| `CN(C)C[C@@H]1[C@H]2CN(Cc3ccc(CO)o3)C[C@@H]12` | 9.202 |
| `CN1CCC(NC(=O)c2n[nH]c3ccccc23)C1` (stereo not shown) | 25.4 |
| `Cn1cc(CN(CCC#N)CCN2CCOCC2)cn1` | 5.489 |
| `CCNC(=O)CN(CC)CC(=O)Nc1cc(C)no1` | 7.894 |
| `c1ccc(C2CCCN2)nc1` (stereo not shown) | 22.75 |
| `CCN(C(=O)COc1ccccc1)C1CCS(=O)(=O)C1` (stereo not shown) | -3.353 |
| `Cc1c(O)cccc1C(=O)N[C@@H]1CS(=O)(=O)C[C@H]1O` | -0.1359 |
| `CC(C)C(C)(C#N)NC(=O)CSc1nncn1C` (stereo not shown) | 8.894 |
| `COc1ccccc1CCC(=O)NCC(C)(C)C(N)=O` | 4.983 |
| `CC(C)CNc1nnc(SCCS(C)(=O)=O)s1` | 31.44 |
| `CC(C)(C)OC(=O)c1cncc(N)c1` | 19.19 |
| `Cc1cc(NC(=O)NCC2CCS(=O)(=O)C2)no1` (stereo not shown) | -11.5 |
| `CC(C)(C)C(=O)NC1CCS(=O)(=O)c2ccccc21` (stereo not shown) | 8.277 |
| `CCOC(CN)CN` | -18.38 |
| `Cc1ccccc1C(C)NC(=O)c1ccc(O)nc1` (stereo not shown) | 26.94 |
| `COC(=O)c1sc(N2CCCCC2)nc1N` | -11.25 |
| `Nc1ccc(N2CCC(CO)CC2)cn1` | 4.684 |
| `CN(C)C(CNC(=O)Nc1cn[nH]c1)c1ccsc1` (stereo not shown) | -8.185 |
| `COCCCNC(=O)c1cc(S(C)(=O)=O)ccc1C` | 8.969 |
| `CCCn1nc(C(=O)NCc2csc(Br)c2)ccc1=O` | 81.3 |
| `OCc1ccc(OCCF)cn1` | -13.74 |
| `NC1CCCCC1=O` (stereo not shown) | 8.536 |
| `O=C(NCc1cccnc1)c1ccc(C(F)(F)F)nc1` | 18.87 |
| `CCc1cnc(CN(C(C)=O)C2CCNC2)o1` (stereo not shown) | 17.75 |
| `CCN(CC)C(=O)CN(C)S(=O)(=O)N1CCOCC1` | -6.642 |
| `N#Cc1cccc(C(=O)NCCCN2CCCC2)c1` | 15.63 |
| `CN(CCCNS(N)(=O)=O)c1ccccc1F` | 33.05 |
| `CCCC1C=CCN1Cc1nc(C(=O)NC)no1` (stereo not shown) | 23.16 |
| `CCCN(C)S(=O)(=O)NC(=O)Cc1ccccc1F` | -2.326 |
| `CN(Cc1cc(Br)cs1)C(=O)C(C)(C)CN` | -8.026 |
| `NS(=O)(=O)CC1CCOCC1` | 7.782 |
| `CN(CC(N)=O)C(=O)Cc1cnn(-c2ccccc2)c1` | -7.931 |

Some entries from above, unchanged:

Result for NC1CCCCC1=O (stereo not shown) was 8.536%.
Result for CCCN(C)S(=O)(=O)NC(=O)Cc1ccccc1F was -2.326%.
Result for CN(C)S(=O)(=O)N(C)CCc1ccccn1 was 2.286%.
Result for CCCn1nc(C(=O)NCc2csc(Br)c2)ccc1=O was 81.3%.
Result for CN(Cc1cc(Br)cs1)C(=O)C(C)(C)CN was -8.026%.
Result for CNC(=O)CN1CCC(NC(=O)c2cccs2)CC1 was 36.31%.